Data on seven substances can be found in article PMC11653647.

Chains of the proteins cited; added tags and fusions are not shown. Lines headed by an entry give the natural chain unless they say otherwise; changes in a name come on top.
UniProt O14744: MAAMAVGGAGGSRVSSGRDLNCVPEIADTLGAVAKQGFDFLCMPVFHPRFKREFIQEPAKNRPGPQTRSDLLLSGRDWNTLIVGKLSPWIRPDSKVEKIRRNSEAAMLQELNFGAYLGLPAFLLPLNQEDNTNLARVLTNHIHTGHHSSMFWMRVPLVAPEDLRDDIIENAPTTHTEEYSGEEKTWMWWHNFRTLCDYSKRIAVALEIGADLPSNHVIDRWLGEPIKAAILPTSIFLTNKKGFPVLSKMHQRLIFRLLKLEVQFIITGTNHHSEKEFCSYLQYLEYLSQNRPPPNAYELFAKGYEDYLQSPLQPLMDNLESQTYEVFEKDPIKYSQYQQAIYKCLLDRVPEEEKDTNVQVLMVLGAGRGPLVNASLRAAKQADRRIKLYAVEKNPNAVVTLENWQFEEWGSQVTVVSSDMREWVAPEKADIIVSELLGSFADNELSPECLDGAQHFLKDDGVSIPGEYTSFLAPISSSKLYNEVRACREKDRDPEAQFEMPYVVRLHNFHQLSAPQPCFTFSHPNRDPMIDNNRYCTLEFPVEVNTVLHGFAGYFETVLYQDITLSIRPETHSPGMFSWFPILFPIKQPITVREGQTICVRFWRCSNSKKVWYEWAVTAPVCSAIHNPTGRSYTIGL
UniProt P31749: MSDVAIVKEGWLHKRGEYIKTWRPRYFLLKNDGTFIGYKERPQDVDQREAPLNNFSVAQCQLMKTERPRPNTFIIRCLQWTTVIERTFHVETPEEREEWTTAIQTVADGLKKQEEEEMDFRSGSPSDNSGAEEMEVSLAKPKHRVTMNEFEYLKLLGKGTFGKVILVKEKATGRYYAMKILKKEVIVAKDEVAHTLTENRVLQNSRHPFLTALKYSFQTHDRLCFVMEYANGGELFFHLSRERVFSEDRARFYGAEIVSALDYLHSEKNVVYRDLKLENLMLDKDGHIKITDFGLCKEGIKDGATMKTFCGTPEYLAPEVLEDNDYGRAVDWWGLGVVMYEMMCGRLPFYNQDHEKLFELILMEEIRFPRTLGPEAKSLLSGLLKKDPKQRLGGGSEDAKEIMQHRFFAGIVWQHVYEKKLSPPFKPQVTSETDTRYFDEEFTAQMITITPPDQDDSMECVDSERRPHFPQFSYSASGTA
UniProt Q9BQA1: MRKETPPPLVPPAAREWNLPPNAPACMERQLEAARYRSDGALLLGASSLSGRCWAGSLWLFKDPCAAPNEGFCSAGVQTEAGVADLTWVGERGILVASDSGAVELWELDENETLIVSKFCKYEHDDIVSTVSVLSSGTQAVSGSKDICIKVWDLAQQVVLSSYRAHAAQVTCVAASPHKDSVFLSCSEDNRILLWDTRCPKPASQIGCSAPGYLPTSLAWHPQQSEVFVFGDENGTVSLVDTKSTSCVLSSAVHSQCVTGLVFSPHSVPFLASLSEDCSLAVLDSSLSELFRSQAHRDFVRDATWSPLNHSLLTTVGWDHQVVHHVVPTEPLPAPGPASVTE

These are yes or no findings as the source states them, for the method shown. Binding seen in cells or lysates may run through a third protein. Some results given as binding are weak or reduced against the parent protein; the word gives no strength. For part of these data: Sequences can lack the tags named with a protein.

Test [1] deals with PRMT5 (protein arginine methyltransferase 5), endogenous (human (endogenous in MDA-MB-231 and 293T)) (UniProt O14744). Description: co-IP; endogenous proteins in MDA-MB-231 lysate; lysis buffer 150 mM NaCl, 10 mM HEPES pH 7.4, 1% NP-40; reciprocal IPs; in some panels TBL2 silenced or Flag-TBL2 overexpressed, WDR77 knocked down or overexpressed.
The target of test [2] is T1, C-terminal Flag-tagged TBL2 (transducin beta-like 2) (UniProt Q9Y4P3).
T1 sequence: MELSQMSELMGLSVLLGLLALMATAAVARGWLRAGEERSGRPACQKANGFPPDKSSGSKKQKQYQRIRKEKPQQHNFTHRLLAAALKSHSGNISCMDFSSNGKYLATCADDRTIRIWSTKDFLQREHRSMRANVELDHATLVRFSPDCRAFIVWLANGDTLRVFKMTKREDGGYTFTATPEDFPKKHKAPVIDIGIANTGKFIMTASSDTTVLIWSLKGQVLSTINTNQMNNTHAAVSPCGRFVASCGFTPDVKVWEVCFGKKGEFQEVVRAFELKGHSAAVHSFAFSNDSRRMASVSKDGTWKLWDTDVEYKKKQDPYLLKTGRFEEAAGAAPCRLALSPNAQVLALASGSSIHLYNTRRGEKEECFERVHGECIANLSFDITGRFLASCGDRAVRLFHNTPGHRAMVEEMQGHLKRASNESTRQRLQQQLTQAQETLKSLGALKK
Nature of the test: co-IP; 293T cells transfected with Flag-TBL2, HA-PRMT5 and MYC-WDR77 constructs; Flag or HA affinity agarose.

The target of test [3] is T2, GST-tagged full-length TBL2 (UniProt Q9Y4P3).
T2 sequence: T1 sequence
Nature of the test: pull-down; GST pull-down with purified GST and GST-tagged full-length or deletion mutants of TBL2 from HEK293T cells; source of PRMT5 and WDR77 not stated.

For test [4], the target named is T3, TBL2 (transducin beta-like 2), endogenous (human (endogenous in MDA-MB-231)) (UniProt Q9Y4P3).
T3 sequence: T1 sequence
Nature of the test: co-IP; endogenous proteins in MDA-MB-231 lysate; lysis buffer 150 mM NaCl, 10 mM HEPES pH 7.4, 1% NP-40; reciprocal IPs; in some panels TBL2 silenced or Flag-TBL2 overexpressed, WDR77 knocked down or overexpressed.

The target of test [5] is T3, TBL2 (transducin beta-like 2), endogenous (human (endogenous in MDA-MB-231)). Description: proximity ligation; Duolink in situ PLA on fixed MDA-MB-231 cells with anti-TBL2, anti-PRMT5 and anti-WDR77 antibodies.

Consider “AKT1, endogenous (from UniProt P31749 1-480) (enzyme)”, for which, in test [1], the binding result is given as “binds”.

In the case of “HA-PRMT5 (from UniProt O14744 1-637) (enzyme)”, in test [2], the binding entry is reported as “binds”.

Turning to MYC-WDR77 (from UniProt Q9BQA1 1-342), the binding entry in test [2] was “binds”.

In the case of “PRMT5 (as used in the GST pull-down and in Figures S3B,C) (from UniProt O14744 1-637) (enzyme)”, the binding result in test [3] is on record as “binds”.

As to “PRMT5 (protein arginine methyltransferase 5), endogenous (from UniProt O14744 1-637) (enzyme)”, the binding result in test [4] and in test [5] was “binds” each time.

Consider “WDR77 (as used in the GST pull-down and in Figures S3B,C) (from UniProt Q9BQA1 1-342)”, for which the binding result in test [3] is “binds”.

As for “WDR77 (methylosome protein 50), endogenous (from UniProt Q9BQA1 1-342)”, the binding result in test [4] and in test [5] was “binds” in each case.
